Results on 1 substance are retold here after patent US20240174733A1 (ACCELERON PHARMA, published 2024).

Sequences of proteins named here, by UniProt entry; tags and fusion partners are left off. A change or cut given only in a name is not applied to a line headed by its entry. Residues count along the entry.
UniProt P22004, residues 382-513: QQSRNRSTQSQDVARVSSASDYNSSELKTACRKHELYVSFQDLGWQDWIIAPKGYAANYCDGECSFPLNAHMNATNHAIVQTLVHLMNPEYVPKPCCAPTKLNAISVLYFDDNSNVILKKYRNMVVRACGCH
UniProt P27037: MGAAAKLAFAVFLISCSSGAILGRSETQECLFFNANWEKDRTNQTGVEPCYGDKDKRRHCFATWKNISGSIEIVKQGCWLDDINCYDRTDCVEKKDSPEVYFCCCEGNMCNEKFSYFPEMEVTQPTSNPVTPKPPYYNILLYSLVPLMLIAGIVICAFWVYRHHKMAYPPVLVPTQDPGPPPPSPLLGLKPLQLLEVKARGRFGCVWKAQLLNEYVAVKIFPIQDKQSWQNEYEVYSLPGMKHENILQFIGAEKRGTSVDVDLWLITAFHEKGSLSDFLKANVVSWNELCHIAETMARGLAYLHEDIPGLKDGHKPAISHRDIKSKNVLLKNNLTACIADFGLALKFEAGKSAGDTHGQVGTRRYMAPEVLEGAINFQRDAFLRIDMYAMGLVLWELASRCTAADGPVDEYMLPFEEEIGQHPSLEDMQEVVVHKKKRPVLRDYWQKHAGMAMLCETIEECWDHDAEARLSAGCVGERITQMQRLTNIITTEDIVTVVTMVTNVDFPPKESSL

These are yes or no findings as the source states them, for the method shown. Some entries that bind do so weakly or less than the wild type.

In the experiment the target is BMP6 (UniProt P22004). In words: similar binding assay (Biacore). On the technique in general: SPR reads the build-up and loss of mass on a sensor chip optically.

For the substance “ActRIIA-mFc (from UniProt P27037 21-135) (Fc fusion)”, the binding result is listed as “binds”.
